Laboratory results taken from paper PMC6848142.
These are yes or no findings as the source states them, for the method shown. Binding seen in cells or lysates may run through a third protein. Some binding calls cover weakened binding; strength is not graded here.

By UniProt entry, the sequences of proteins in these tests, tags left out.
UniProt Q15836: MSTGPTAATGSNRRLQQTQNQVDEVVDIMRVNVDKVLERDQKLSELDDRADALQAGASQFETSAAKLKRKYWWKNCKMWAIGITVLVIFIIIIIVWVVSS
UniProt O00161: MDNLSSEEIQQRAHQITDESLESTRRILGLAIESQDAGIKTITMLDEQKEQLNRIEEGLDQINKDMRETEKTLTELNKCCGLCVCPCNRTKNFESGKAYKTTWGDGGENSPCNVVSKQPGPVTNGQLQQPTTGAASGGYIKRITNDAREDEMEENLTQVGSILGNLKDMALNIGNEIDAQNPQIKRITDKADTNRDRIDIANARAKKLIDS

Target: VAMP3 (endogenous) (human (endogenous in H23, A549, CHL1)) (UniProt Q15836)
Assay: co-IP; endogenous RAS and SNARE proteins from A549 lysate

binding: binds
Substance: SNAP23 (endogenous) (from UniProt O00161 1-211)
